# Data taken from PubChem BioAssay AID493014 (National Center for Advancing Translational Sciences (NCATS), 2011).
# The other results are listed elsewhere or left out. Further columns of the screen follow, without active or inactive calls. Most of these compounds were active or inconclusive in the main read-out, so they are no random draw. Potencies come from curve fits of mixed quality, noted in brackets.
# Assay: qHTS Assay to Find Inhibitors of Chronic Active B-Cell Receptor Signaling
# Details: ABC-DLBCL IkBa-CBG/CBR reporter, luminescence ratio (green luciferase fused to IkBa over red control in TMD8 lymphoma cells), 4 h
# Outline: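 Cell line TMD8 (human ABC DLBCL), stably expressing tet-inducible CBG68-IkBa fusion and CBR; IMDM/0.5% FBS; cpd up to 46 uM; dox induction, 4 h, 37C/5% CO2; dual luminescence; green/red ratio; MG132 control.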
# [1] = measured here: CBR red luminescence, cell number
# [2] = measured here: IkBa-CBG green luminescence
SMILES,AC50 [1],AC50 [2]
CC(/C=N/NC(=O)c1ccco1)=C\c1ccccc1,"12.6 µM [falling, partial curve]",–
O=C(COc1ccccc1)NCCSCc1ccco1,"23.1 µM [rising, single point]",–
COc1cc(/C=C\C(=O)NCc2ccc3c(c2)cc(C)n3C)cc(OC)c1OC,–,"18.4 µM [falling, single point]"
COC(=O)CCC(=O)N(CCN(C(=O)CCC(=O)OC)c1ccccc1)c1ccccc1,"35.5 µM [falling, single point]",–
C/C(=N\NC(=O)c1ccccc1O)c1ccc(Br)s1,"1.64 µM [falling, full curve]",–
CCn1nc(C(=O)Nc2nc3ccccc3[nH]2)c2ccccc2c1=O,"7.31 µM [falling, partial curve]",–
CCCCCCC1CC(CC(=O)Nc2ccc([N+](=O)[O-])cc2)C(=O)O1 (stereo not drawn),"32.6 µM [falling, single point]",–
Cc1ccc2c(c1)NC(=O)C(CC(=O)NCCCN1CCCCC1)O2 (stereo not drawn),"29.1 µM [falling, single point]",–
COc1cc(CNCc2ccccc2)c(Br)cc1OC1CCCC1,"35.5 µM [falling, single point]",–
O=c1[nH]c2c(c3c1CCCC3)CCCC2,"23.1 µM [rising, single point]",–
CC1(C)Cc2c(c(N3CCCC3)nc3sc(C(=O)Nc4ccccc4)c(N)c23)CO1,"14.1 µM [falling, partial curve, poor fit]",–
COCCNc1ccc([N+](=O)[O-])cc1C(=O)Nc1cccc(C)n1,"35.5 µM [falling, single point]",–
COc1ccccc1NC(=O)c1ccc(-c2ccccc2F)o1,"9.2 µM [falling, partial curve, poor fit]",–
O=C(COC(=O)c1ccc(Cl)c([N+](=O)[O-])c1)Nc1ccccc1OC(F)F,"7.31 µM [falling, partial curve, poor fit]",–
C=CCOc1c(Cl)cc(CNc2ccc(C)c(Cl)c2)cc1OC,"2.91 µM [rising, full curve]","2.91 µM [falling, full curve]"
COc1ccc(C=O)cc1COc1ccc(C)cc1[N+](=O)[O-],"22.4 µM [rising, single point]","20 µM [falling, single point]"
COc1ccccc1NC(=O)c1cnc(SCC(=O)NCC2CCCO2)n(C)c1=O (stereo not drawn),"4.61 µM [falling, partial curve]",–
COc1ccccc1C(=O)NNC1=NS(=O)(=O)c2ccccc21,"11.2 µM [falling, partial curve]",–
CCN(CC(=O)NCc1cccs1)C(=O)CCOc1ccccc1C,"17.8 µM [rising, single point]",–
O=C(CC(Sc1ccccc1)c1cccs1)c1ccco1 (stereo not drawn),"22.4 µM [falling, single point]",–
O=C(NNc1ccc([N+](=O)[O-])cc1)c1ccccc1F,"15.8 µM [falling, single point]",–
C=CCOc1ccccc1CNc1ccccc1C,"18.4 µM [rising, partial curve, poor fit]",–

SMILES,AC50 [1],AC50 [2]
CCCN(CC(=O)Nc1ccccc1C)C(=O)COC(=O)CSc1ccc([N+](=O)[O-])cc1,"16.4 µM [falling, single point]",–
CCc1ccc(/C=C2\SC(=S)N(CCC(=O)N3CCN(C)CC3)C2=O)cc1,"12.6 µM [falling, partial curve, poor fit]",–
CS(=O)(=O)N(Cc1ccc(C(=O)NN=C2CCCC2)cc1)c1ccccc1,"20.6 µM [falling, partial curve]",–
N=C1C(c2nc(-c3ccc(Cl)cc3)cs2)=C(O)CN1NC(=O)c1ccc(O)cc1,"0.355 µM [rising, full curve, poor fit]",–
COc1cc(C(=O)NCc2ccc(-n3cccc3)cc2)cc(OC)c1OC,"10 µM [rising, partial curve, poor fit]",–
COc1ccc2nc(C)c(C(=O)NN)cc2c1,"0.0058 µM [falling, full curve, poor fit]",–
CC1CCCN(CCCNC(=O)c2ccc3c(c2)N(Cc2ccccc2F)C(=O)c2ccccc2S3(=O)=O)C1 (stereo not drawn),"35.5 µM [falling, single point]",–
Cc1ccc(OCCC(=O)Nc2ccc(F)c(F)c2)cc1,"3.66 µM [rising, partial curve]",–
O=C(/C=C/c1ccccc1)c1ccc2c(c1)OCO2,"35.5 µM [falling, single point]",–
COc1ccc(CCNC(=O)C(=O)NCC2OCCN2S(=O)(=O)c2ccc(OC)c(C)c2)cc1 (stereo not drawn),"1.58 µM [rising, partial curve, poor fit]",–
Oc1c(CN2CCCCC2)cc(Br)c2cccnc12,–,"6.31 µM [falling, partial curve, poor fit]"
Nc1n[nH]c(N)c1N=Nc1ccc(F)cc1,"20 µM [falling, partial curve]",–
O=C(CCS(=O)(=O)c1ccc(F)cc1)N1CCN(c2ccccc2)CC1,"25.9 µM [falling, single point]",–
COc1cc(/C=N/N=C/c2cc(OC)c(O)c(OC)c2)cc(OC)c1O,"6.51 µM [rising, full curve]",–
CCS(=O)(=O)c1nnnn1-c1ccccc1S(C)(=O)=O,"11.2 µM [falling, partial curve]",–
CCN(CC)S(=O)(=O)c1ccc(N2CCOCC2)c(NC(=O)C2CCCO2)c1 (stereo not drawn),"35.5 µM [rising, single point]",–
CCCNC(=O)c1c(N)n(-c2ccc3c(c2)OCO3)c2nc3ccccc3nc12,"14.1 µM [falling, single point]",–
CC(Sc1nc2ccccc2c(=O)n1C)C(=O)Nc1ccc2c(c1)OCCO2 (stereo not drawn),"0.366 µM [falling, full curve]",–
COc1ccc(Nc2oc(-c3ccc(Cl)cc3)nc2C#N)cc1,"22.4 µM [falling, single point]",–
O=c1oc(-c2cccs2)nc2scc(-c3cccs3)c12,"0.231 µM [falling, full curve, poor fit]",–
CC(C)(C)c1nc2c(C#N)c(-c3ccc(Cl)cc3)ccn2n1,"18.4 µM [rising, single point]",–
Cc1ccc(NC(=O)CSc2nnc(Cc3csc(C)n3)o2)cc1,"0.103 µM [falling, full curve, poor fit]",–

# Single records, from the list above.
# CC(C)(C)c1nc2c(C#N)c(-c3ccc(Cl)cc3)ccn2n1 in the list: AC50 [1]: 18.4 µM [rising, single point]
# COc1ccc(Nc2oc(-c3ccc(Cl)cc3)nc2C#N)cc1 in the list: AC50 [1]: 22.4 µM [falling, single point]

# Three records picked at random from those above:
SMILES,AC50 [1],AC50 [2]
CCN(CC)S(=O)(=O)c1ccc(N2CCOCC2)c(NC(=O)C2CCCO2)c1 (stereo not drawn),"35.5 µM [rising, single point]",–
O=C(CC(Sc1ccccc1)c1cccs1)c1ccco1 (stereo not drawn),"22.4 µM [falling, single point]",–
COc1ccc(CCNC(=O)C(=O)NCC2OCCN2S(=O)(=O)c2ccc(OC)c(C)c2)cc1 (stereo not drawn),"1.58 µM [rising, partial curve, poor fit]",–

# (list continues)

SMILES,AC50 [1],AC50 [2]
COc1ccc(NC(=O)c2nc3ccccc3s2)cc1,"16.4 µM [falling, partial curve]",–
Cn1nc(-c2ccc(NCCO)c([N+](=O)[O-])c2)c2ccccc2c1=O,"31.6 µM [rising, single point]",–
Brc1ccc(-c2noc(CCc3ccccc3)n2)o1,"0.398 µM [rising, full curve, poor fit]",–
COc1ccc(/C=N/NC(=O)c2cccc(OC(F)(F)C(F)F)c2)cc1O,"20.6 µM [falling, single point]",–
CCOC(=O)C(NC(=O)CCl)(Nc1sc(C)c(CC)c1C#N)C(F)(F)F (stereo not drawn),"13 µM [falling, partial curve]",–
O=C1c2ccccc2C(=O)N1CCC#Cc1ccc2cc(C3(O)CCCCC3)oc(=O)c2c1,"1.64 µM [rising, full curve, poor fit]",–
Cc1onc(-c2ccccc2Cl)c1C(=O)Nc1cccc2cccnc12,"11.2 µM [falling, partial curve]",–
COc1ccc(CN(Cc2cc3cc4c(cc3[nH]c2=O)OCO4)C(=O)NC2CCCCC2)cc1,"1.03 µM [rising, partial curve, poor fit]",–
Cc1ccc(NC(=O)CCSc2ccccc2)c(C)c1,"35.5 µM [rising, single point]",–
COc1ccccc1NC(=O)Nc1cccc(C)n1,"2.24 µM [rising, full curve]",–
O=C(CSc1ncnc2sc3c(c12)CCCC3)c1ccccc1,"32.6 µM [rising, single point]",–
O=C(Nc1cccnc1)c1ccc(-c2ccccc2)cc1,"22.4 µM [falling, single point]",–
O/N=C1\CC/C(=N\O)c2nn(-c3ccc(Cl)cc3Cl)nc21,"35.5 µM [falling, single point]",–
COc1ccc(NC(=O)C2C(c3ccccc3)C2(Cl)Cl)cc1 (stereo not drawn),"6.31 µM [rising, single point]",–
C=CCNC(=O)c1c(Br)cnn1-c1ccc(C)cc1,"2.51 µM [rising, partial curve, poor fit]",–
COc1cc(C(=O)Nc2ccc(Nc3ccccc3)cc2)cc(OC)c1OC,"15.8 µM [falling, single point]",–
CCc1c(C(=O)OCc2ccccc2)[nH]c(C)c1C,"0.251 µM [rising, full curve, poor fit]",–
CC(C)c1ccc(C2=CC(c3ccc(C(C)C)cc3)n3nnnc3N2)cc1 (stereo not drawn),"0.355 µM [rising, partial curve, poor fit]",–
COc1cc(CNC(=O)c2ccc(Cn3nc(C)c(Cl)c3C)o2)cc(OC)c1,"20.6 µM [falling, single point]",–
CCn1c(N2CCN(C(=O)/C=C/c3ccccc3)CC2)nc2ccccc21,"11.2 µM [falling, partial curve, poor fit]",–
O=Cc1ccc(-c2ccc(Cl)cc2Cl)[nH]1,"35.5 µM [rising, single point]",–
COc1ccc(-c2oc(=O)c3cc(OC)c(OC)cc3c2/C=C/c2ccc(OC(C)=O)cc2)cc1,"4.61 µM [falling, single point]",–
